Test results taken from PMC10352605.
No constants are given. Whether binding was seen depends on the method and setting. In cells and extracts the contact can be indirect. Some entries that bind do so weakly or less than the wild type. For some of these results: Tags and fused reporters may be left off the sequences shown. Blank lines part the entries; values can stand above or below the molecule they belong to.

Amino acid sequences for entries named in this document (tags omitted). A change or cut given only in a name is not applied to a line headed by its entry. Residues count along the entry.
UniProt P04198: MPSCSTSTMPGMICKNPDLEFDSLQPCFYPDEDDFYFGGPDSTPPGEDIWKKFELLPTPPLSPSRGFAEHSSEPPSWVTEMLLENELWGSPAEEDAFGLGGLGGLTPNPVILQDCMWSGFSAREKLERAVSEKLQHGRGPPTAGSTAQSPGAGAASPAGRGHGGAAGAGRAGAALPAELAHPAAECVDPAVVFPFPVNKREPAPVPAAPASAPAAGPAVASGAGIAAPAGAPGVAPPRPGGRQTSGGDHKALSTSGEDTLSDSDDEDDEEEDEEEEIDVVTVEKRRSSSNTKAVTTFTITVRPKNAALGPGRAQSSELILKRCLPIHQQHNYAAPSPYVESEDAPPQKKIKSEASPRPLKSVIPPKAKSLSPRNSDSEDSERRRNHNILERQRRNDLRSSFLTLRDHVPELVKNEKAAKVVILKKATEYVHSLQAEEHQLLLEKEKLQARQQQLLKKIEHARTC
AA 48 to 89 of HA-MYCN: residues 48-89 of P04198
UniProt Q969H0: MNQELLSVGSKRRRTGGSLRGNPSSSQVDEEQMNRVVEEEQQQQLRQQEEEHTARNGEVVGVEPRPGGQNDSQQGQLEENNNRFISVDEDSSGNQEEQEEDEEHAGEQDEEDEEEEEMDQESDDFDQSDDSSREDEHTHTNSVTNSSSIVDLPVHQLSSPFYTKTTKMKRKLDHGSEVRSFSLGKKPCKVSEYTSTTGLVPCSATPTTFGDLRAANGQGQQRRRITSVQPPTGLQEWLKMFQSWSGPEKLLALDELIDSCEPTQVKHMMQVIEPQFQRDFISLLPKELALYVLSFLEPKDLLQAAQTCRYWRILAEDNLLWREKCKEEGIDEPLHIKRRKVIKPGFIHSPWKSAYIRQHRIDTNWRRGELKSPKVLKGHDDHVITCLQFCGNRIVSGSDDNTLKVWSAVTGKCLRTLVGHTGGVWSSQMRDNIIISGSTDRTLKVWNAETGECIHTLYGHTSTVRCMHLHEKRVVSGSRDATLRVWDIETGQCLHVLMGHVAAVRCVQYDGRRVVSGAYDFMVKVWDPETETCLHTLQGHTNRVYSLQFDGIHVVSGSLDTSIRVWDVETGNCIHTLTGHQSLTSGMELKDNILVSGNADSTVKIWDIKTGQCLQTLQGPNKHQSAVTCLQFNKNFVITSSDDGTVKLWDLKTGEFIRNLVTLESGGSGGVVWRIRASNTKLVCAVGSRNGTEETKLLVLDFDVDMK

Experiments:
[1] = target: MYCN (co-IP of Figure 8B and Figure S8) (UniProt P04198); assay: co-IP; FBXW7-MYCN co-IP with graded exogenous expression of CCNB1IP1 (Figure 8B,C) or knockdown of CCNB1IP1 (Figure S8); cells not named
HA-tagged MYCN WT [2] = target: HA-tagged MYCN WT (UniProt P04198); assay: co-IP; HEK293T cells co-transfected with HA-MYCN WT, MYCN^△48-89 or MYCN^48-89, Myc-FBXW7, alone or together with Flag-CCNB1IP1 WT or M4 (competitive binding); immunoblot
AA 48 to 89 of HA-MYCN = AA 48 to 89 of HA-MYCN (UniProt P04198); assay: as above
[3] = target: MYCN (endogenous, MYCN-amplified neuroblastoma cells) (human (endogenous in BE(2)M17 and IMR-32)) (UniProt P04198); assay: co-IP; endogenous proteins; anti-MYCN antibody on magnetic beads, IgG as negative control; lysates of BE(2)M17 and IMR-32 cells; immunoblot
HA-tagged MYCN WT [4] = target: HA-tagged MYCN WT (UniProt P04198); assay: co-IP; HEK293T cells transfected with HA-MYCN and Flag-CCNB1IP1 WT or truncated mutants M1-M4, each separately; immunoblot

- binding [1]: binds
Molecule: FBXW7 (co-IP of Figure 8B and Figure S8) (from UniProt Q969H0 1-707)

- binding (HA-tagged MYCN WT [2]): binds
- binding (AA 48 to 89 of HA-MYCN): binds
Molecule: Myc-tagged FBXW7 WT (from UniProt Q969H0 1-707)

- binding [3]: binds
B1: cyclin B1 interacting protein 1 (endogenous, MYCN-amplified neuroblastoma cells) (protein, UniProt Q9NPC3 1-277)
chain: MSLCEDMLLCNYRKCRIKLSGYAWVTACSHIFCDQHGSGEFSRSPAICPACNSTLSGKLDIVRTELSPSEEYKAMVLAGLRPEIVLDISSRALAFWTYQVHQERLYQEYNFSKAEGHLKQMEKIYTQQIQSKDVELTSMKGEVTSMKKVLEEYKKKFSDISEKLMERNRQYQKLQGLYDSLRLRNITIANHEGTLEPSMIAQSGVLGFPLGNNSKFPLDNTPVRNRGDGDGDFQFRPFFAGSPTAPEPSNSFFSFVSPSRELEQQQVSSRAFKVKRI

- binding [1]: binds
B2: exogenously expressed CCNB1IP1 (co-IP of Figure 8B) (protein, UniProt Q9NPC3 1-277)
chain: B1 chain

- binding (HA-tagged MYCN WT [4]): binds
- binding (AA 48 to 89 of HA-MYCN): binds
B3: Flag-tagged CCNB1IP1 WT (protein, UniProt Q9NPC3 1-277)
chain: B1 chain
